According to patent US20070238638A1 (TANOX, published 2007):
These are yes or no findings as the source states them, for the method shown. Some entries that bind do so weakly or less than the wild type.

Target: T1, NFκB family member p50 (human), P19838
T1 chain: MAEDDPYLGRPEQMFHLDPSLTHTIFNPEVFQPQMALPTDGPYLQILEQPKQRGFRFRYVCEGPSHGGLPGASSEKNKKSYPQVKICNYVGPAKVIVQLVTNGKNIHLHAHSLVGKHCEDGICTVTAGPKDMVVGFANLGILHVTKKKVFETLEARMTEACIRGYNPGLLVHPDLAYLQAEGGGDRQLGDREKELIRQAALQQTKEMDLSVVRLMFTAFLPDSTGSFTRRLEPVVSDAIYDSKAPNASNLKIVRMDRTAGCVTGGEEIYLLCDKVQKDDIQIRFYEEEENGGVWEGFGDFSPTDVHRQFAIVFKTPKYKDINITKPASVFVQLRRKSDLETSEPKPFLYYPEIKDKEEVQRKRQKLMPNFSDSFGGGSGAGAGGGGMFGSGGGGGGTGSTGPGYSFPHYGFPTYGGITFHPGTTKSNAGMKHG
Assay: EMSA gel supershift, HT29 nuclear extract on κB1 oligonucleotide
Settings: remark: other sources report otherwise

binding: binds
B1: NFκB family member p50 (other, human, UniProt P19838 1-433, looked up)
chain: T1 chain
notes: also called p50 NFκB protein
